Not every detail of the peptide structures is certain; ends, links or a residue may be inferred. No end group written: not given here.
Tests used:
Format in all cases: cell-based
[1] = system: bovine aortic endothelial cells (BAEC); assay: Haptotaxis assay, peptide-coated Sepharose beads on bovine aortic endothelial cells; details: peptide covalently coupled to Sepharose beads, 6 or 12 mg peptide/ml SB
[2] = system: foreskin fibroblasts (FF); assay: Haptotaxis assay, peptide-coated Sepharose beads on foreskin fibroblasts; details: peptide covalently coupled to Sepharose beads, 6 or 12 mg peptide/ml SB
[3] = system: bovine aortic endothelial cells (BAEC); assay: Ageing test, haptotaxis of aged SB-peptides on bovine aortic endothelial cells; details: SB-peptide stored at room temperature 24 hours to 21 days before exposure to cells
[4] = system: foreskin fibroblasts (FF); assay: Ageing test, haptotaxis of aged SB-peptides on foreskin fibroblasts; details: SB-peptide stored at room temperature 24 hours to 21 days before exposure to cells
[5] = system: FF; assay: Cellular intake, toxicity of Doxil with or without chimeric peptide

Row | Sequence | cell attachment (haptotaxis) to SB-peptide [1] | cell attachment (haptotaxis) to SB-peptide [2] | cellular attachment to aged SB-peptide [3] | cellular attachment to aged SB-peptide [4] | intake of nanoparticles (doxorubicin liposome, Doxil) into cells ([5]; chimeric peptide 100 μg/ml) | toxicity of Doxil formulation towards cells ([5]; chimeric peptide 100 μg/ml with Doxil versus Doxil alone)
1 | VFQKRLDGSVDFKK [M-tide, VFQKR LDGSV DFKK] | poor | poor | – | – | – | –
2 | KTRWYSMKKTTMKVFQKRLDGSVDFKK [chimeric peptide] | improved haptotaxis in comparison to haptides | improved haptotaxis in comparison to haptides | significantly long shelf life | significantly long shelf life | enhance the intake of nanoparticles | enhances the toxicity of Doxil

— patent US8354111B2, “Stable cell binding chimeric peptides” (Hadasit Medical Research Services and Development Ltd., priority 2008, dated 2013)
